The values below come from paper PMC8305389, “Tuning Photodynamic Properties of BODIPY Dyes, Porphyrins’ Little Sisters” (Molecules, 2021).

“Also recorded” adds a separate entry of the source.

For this series, the system named is SK-MEL-28 cells. In words: Subcellular localization by fluorescence microscopy. Particulars: SK-MEL-28, 12 h incubation with 1 μM. The class given is cell-based, human.

With `CC1=C(Br)C(C)=[N+]2C1=C(c1ccc(OCCCCCCCCN3C(=O)c4ccccc4C3=O)cc1)c1c(C)c(Br)c(C)n1[B-]2(F)F` [4b, 2,6-Dibromo-1,3,5,7-Tetramethyl-8-{4-[8-(phthalimidyl)octyloxy]phenyl}-4,4-difluoro-4-bora-3a,4a-diaza-s-indacene], the “subcellular localization (colocalized fluorescence signal)” value is given as “lysosomes; also recorded: adiposomes (lipid droplets)”.
